This is one part of the list. The main result of the screen is listed elsewhere. These columns were measured beside it and carry no call. Most of these compounds were active or inconclusive in the main read-out, so they are no random draw. Potencies come from curve fits of mixed quality, noted in brackets.
Assay: qHTS Assay for Lipid Storage Modulators in Drosophila S3 Cells;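 as to cell number change: cells counted by Cell Tracker Red CMTPX staining in the red channel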
Conditions: BODIPY lipid droplet fluorescence, 18-24 h; for cell number change: measured here: cell count max response, cells fed with added oleic acid
How it was run: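 Drosophila S3 cells got compounds at several concentrations plus oleic acid (400 uM solution). Laser-scanning cytometry with 488 nm excitation read lipid droplets at 500-530 nm and cells at 575-640 nm. Percent activity was relative to 20 uM Triacsin C.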

[1] = measured here: cell number channel AC50, cells fed with added oleic acid
[2] = measured here: lipid fluorescence (Fed channel) AC50, cells fed with added oleic acid

Compound | cell number change [%] | AC50 [1] | AC50 [2]
COc1ccc(NC(=O)CCNS(=O)(=O)c2cccc3nsnc23)c(OC)c1 | 7.92 | – | –
COc1cc2c(cc1NC(=S)NC(=O)c1c(OC)cccc1OC)oc1ccccc12 | -36 | 3.26 µM [falling, full curve] | 3.26 µM [falling, single point]
O=C(OCC(=O)N1CCCC1)c1ccco1 | -15 | – | 0.164 µM [falling, full curve]
Cc1c(NC(=O)CSC2=C(C#N)C(c3ccccc3F)CC(=O)N2)c(=O)n(-c2ccccc2)n1C (stereo not given) | 29 | – | 0.731 µM [rising, partial curve]
S=c1[nH]nc(COc2ccccc2)n1/N=C/c1ccc(Cl)cc1Cl | -38.3 | 29.1 µM [falling, single point] | –
O=C(CCc1ccccc1)Nc1cccnc1Cl | -2.99 | – | 0.103 µM [falling, full curve, poor fit]
CCCCn1c(N)c(N(CC(C)C)C(=O)C2CCN(C(=O)c3ccc(F)cc3)CC2)c(=O)[nH]c1=O | -9.91 | – | 0.58 µM [falling, single point]
Cn1c(=O)[nH]c(=O)c2c1nc(Br)n2CC(O)COc1ccccc1 (stereo not given) | -0.249 | – | 4.61 µM [rising, partial curve, poor fit]
CCCc1cc(=O)n2[nH]c(C)c(-c3ccccc3)c2n1 | 0.0698 | – | 0.206 µM [falling, full curve]
COC(=O)C1=C(C(=O)OC)SC(=C2C(=S)C(C)(C)N(C(=O)CC(C)C)c3ccccc32)S1 | -162 | 13 µM [falling, partial curve] | –
COc1ccccc1/C=N\Nc1ccccc1[N+](=O)[O-] | -65.8 | 0.231 µM [falling, full curve] | 0.184 µM [falling, full curve]
CC(=O)c1cn(CC(=O)NCc2ccco2)c2ccccc12 | -1.79 | – | 6.51 µM [falling, single point]
COc1ccc(Nc2nc(Nc3ccc(OC)cc3)nc(-n3[nH]c(=O)c(C)c3C)n2)cc1 | -58.8 | 32.6 µM [falling, single point] | 32.6 µM [falling, single point]
CCOc1ccccc1N1CCN(CC(=O)Nc2nc(C)c(C(=O)N(C)C)s2)CC1 | -1.72 | – | 6.51 µM [falling, single point]
COCCCNC(=S)NNC(=O)c1ccc2c(c1)OCO2 | 25.7 | – | 29.1 µM [rising, single point]
O=C(O)c1ccc(Nc2cnc3ccccc3n2)cc1 | 9.04 | – | 3.66 µM [falling, single point]
O=C(/C=C/c1ccccc1)CC(O)(c1ccccc1)C(F)(F)C(F)F (stereo not given) | -0.396 | 1.3 µM [falling, full curve, poor fit] | 6.51 µM [falling, single point]
O=C1C(Cl)=C(Nc2ccccc2O)C(=O)N1c1ccccc1 | -0.952 | – | –
Cc1ccc(NC(=O)CSc2nc3ccccc3c(=O)n2CCCC(=O)NCC2CCCO2)cc1 (stereo not given) | – | – | 1.03 µM [falling, full curve]
CC(=O)c1ccccc1NC(=O)COC(=O)/C=C/c1cccs1 | 37.3 | 14.6 µM [rising, single point] | –

Compound | cell number change [%] | AC50 [1] | AC50 [2]
COc1ccccc1CN(C)C(=O)c1sccc1-c1ccccc1 | -8.8 | – | 1.46 µM [rising, full curve, poor fit]
COC(=O)Nc1ccc(S(=O)(=O)NC2CCCCC2)cc1 | -1.7 | 0.146 µM [rising, full curve, poor fit] | –
CCc1ccc(C(=O)CSc2n[nH]c(C)n2)cc1 | 2.95 | – | 1.64 µM [rising, single point]
CCOC(=O)C1(Cc2ccccc2C(F)(F)F)CCN(CCCn2cccn2)CC1 | -2.86 | – | 1.3 µM [falling, partial curve]
CC(C)c1ccc(C2(C)NC(=O)N(CC(=O)N3CCN(C(=O)c4cccs4)CC3)C2=O)cc1 (stereo not given) | -18.6 | – | 6.51 µM [falling, single point]
CCOC(=O)c1ccccc1NC(=O)Cn1cnc2c(cnn2-c2ccccc2)c1=O | 10.2 | 1.03 µM [rising, full curve] | –
Cc1cccc(C(=O)OCC(=O)NC(=O)NCc2ccccc2)c1 | -37.4 | 0.184 µM [falling, full curve] | 1.3 µM [falling, full curve]
COc1cccc(/C=N/NC(=O)CCn2c3ccccc3c3ccccc32)c1 | -19.9 | – | 20.6 µM [falling, single point]
S=C(/N=c1/sccn1Cc1ccccc1)NC1CC1 | – | – | 18.4 µM [falling, single point]
CN(C)/C=N/c1nc2ccc3c(c2s1)CCCC3 | 11.5 | – | 0.517 µM [rising, single point]
COc1ccc(/C=C/C(=O)OCC(=O)N2CCCC2)c(OC)c1 | -2.89 | 5.17 µM [falling, single point] | 3.66 µM [falling, single point]
O=C(CSc1nnc(-c2ccccc2O)o1)N1CCCCC1 | 16.2 | 0.116 µM [rising, full curve, poor fit] | –
COc1cc(OC)cc(C(=O)OCC(=O)NCc2ccco2)c1 | -29.9 | 1.46 µM [falling, full curve, poor fit] | 0.259 µM [falling, full curve, poor fit]
Cc1ccc(NC(=O)CCC(=O)NNC(=O)NC23CC4CC(CC(C4)C2)C3)cc1C | -24.5 | – | 29.1 µM [falling, single point]
CC1CC(C)(C)NC(=S)N1CCC(=O)NCc1ccc(Cl)cc1 (stereo not given) | 19.4 | – | –
Cc1ccc(S(=O)(=O)N2CCN(C(=O)CN3C(=O)NC4(CCCC4)C3=O)CC2)c(C)c1 | -32.2 | 3.26 µM [falling, full curve] | 3.26 µM [falling, full curve]
NC(=O)c1ccccc1NC(=O)CCN1C(=O)c2ccccc2C1=O | 0.766 | – | –
Cn1c(C(O)c2ccccc2)nc(Cl)c1Cl (stereo not given) | -18.7 | 4.61 µM [falling, single point] | 0.164 µM [falling, full curve, poor fit]
O=C(COC(=O)c1ccc(Br)c(S(=O)(=O)N2CCOCC2)c1)NCC1CCCO1 (stereo not given) | – | – | 2.91 µM [falling, full curve]
O=C(CSc1nc(=O)n(CCCN2CCOCC2)c2c1CCCC2)Nc1cccc([N+](=O)[O-])c1 | 50 | 6.51 µM [rising, single point] | –

Compound | cell number change [%] | AC50 [1] | AC50 [2]
CCOC(=O)N1CCN(C(=O)CCN2C(=O)/C(=C\c3cccc(OC)c3)SC2=S)CC1 | 7.69 | – | 5.17 µM [rising, single point]
CCc1nnc(NC(=O)c2ccc(COc3ccccc3C)o2)s1 | -5.13 | – | 29.1 µM [rising, partial curve, poor fit]
Cc1ccccc1NC(=O)CN1C(=O)NC(C)(c2ccc3c(c2)OCO3)C1=O (stereo not given) | 6.71 | 0.164 µM [rising, full curve, poor fit] | 0.366 µM [rising, partial curve, poor fit]
CCCCc1nc2n[nH]c(N)c2c2c1CSC(C)(C)C2 | 14.7 | 0.146 µM [rising, full curve, poor fit] | –
COc1ccc(CNC(=O)c2c[nH]c3c(OC)cc(OC)cc3c2=O)cc1 | 4.99 | – | 18.4 µM [falling, single point]
COc1ccc(-c2csc(NC(=O)CN3C(=O)NC4(CCCC4)C3=O)n2)c(OC)c1 | – | – | 23.1 µM [falling, partial curve, poor fit]
Cc1ccccc1NC(=O)C(C)OC(=O)c1ccccc1C(=O)N(C)c1ccccc1 (stereo not given) | 13.3 | – | 2.06 µM [rising, partial curve]
COc1cc(C2Nc3c(F)cccc3C3C=CCC32)cc(Br)c1OC (stereo not given) | -50.7 | – | –
O=C(O)c1ccc(N2CCc3ccccc32)c([N+](=O)[O-])c1 | -0.758 | – | 0.517 µM [falling, full curve, poor fit]
N#Cc1ccccc1S(=O)(=O)N1CCN(C(=O)c2ccc(-n3cncn3)c([N+](=O)[O-])c2)CC1 | 50 | 29.1 µM [rising, single point] | –
Cn1c(=O)n(Cc2ccccc2Cl)c(=O)c2c1[nH]c(=S)n2C | -22 | – | –
Fc1ccc(OCc2nc(-c3ccc(Br)o3)no2)c(F)c1 | 6.17 | – | –
O=C1COc2ccc(S(=O)(=O)N3CCCCCC3)cc2N1 | -13.9 | – | –
O=C(Nc1cc(Cl)cc(Cl)c1)N1CCCN(Cc2ccccc2)CC1 | -14.4 | – | –
Cc1nc(NC2=NCN(C3CCCCC3C)CN2)nc2ccccc12 (stereo not given) | -78.8 | 32.6 µM [falling, partial curve] | 29.1 µM [falling, single point]
Cc1ccc(/C=N\NC(=O)Cn2nnc3ccccc32)o1 | 47.7 | 11.6 µM [rising, partial curve, poor fit] | –
Cc1nc(N/N=C\c2ccc3c(c2)OCO3)sc1C | -28.2 | – | 29.1 µM [falling, single point]
CCc1nc2n[nH]c(N)c2c2c1CCCC2 | -40 | 0.731 µM [falling, full curve] | 29.1 µM [falling, single point]
COc1ccc(NC(=O)C2CCC(C(C)(C)C)CC2)cc1S(=O)(=O)N1CCCCC1 (stereo not given) | 12.6 | – | 0.366 µM [falling, full curve]
CC1=NN(C(N)=S)C(=O)C1N=Nc1ccc(O)cc1 (stereo not given) | -31.7 | 18.4 µM [falling, single point] | 11.6 µM [falling, partial curve]

Reprinted at random: 4 entries already listed, in no set order.
Compound | cell number change [%] | AC50 [1] | AC50 [2]
COc1ccc(NC(=O)C2CCC(C(C)(C)C)CC2)cc1S(=O)(=O)N1CCCCC1 (stereo not given) | 12.6 | – | 0.366 µM [falling, full curve]
CN(C)/C=N/c1nc2ccc3c(c2s1)CCCC3 | 11.5 | – | 0.517 µM [rising, single point]
COc1ccc(-c2csc(NC(=O)CN3C(=O)NC4(CCCC4)C3=O)n2)c(OC)c1 | – | – | 23.1 µM [falling, partial curve, poor fit]
COc1ccc(CNC(=O)c2c[nH]c3c(OC)cc(OC)cc3c2=O)cc1 | 4.99 | – | 18.4 µM [falling, single point]
